Laboratory results taken from patent US12729225B2, “Non-canonical SWI/SNF complex and uses thereof” (Dana-Farber Cancer Institute, Inc., priority 2018, dated 2026).

B1: SYMPK (protein, UniProt Q92797 1-1274, looked up)
Symplekin: MASGSGDSVTRRSVASQFFTQEEGPGIDGMTTSERVVDLLNQAALITNDSKITVLKQVQELIINKDPTLLDNFLDEIIAFQADKSIEVRKFVIGFIEEACKRDIELLLKLIANLNMLLRDENVNVVKKAILTMTQLYKVALQWMVKSRVISELQEACWDMVSAMAGDIILLLDSDNDGIRTHAIKFVEGLIVTLSPRMADSEIPRRQEHDISLDRIPRDHPYIQYNVLWEEGKAALEQLLKFMVHPAISSINLTTALGSLANIARQRPMFMSEVIQAYETLHANLPPTLAKSQVSSVRKNLKLHLLSVLKHPASLEFQAQITTLLVDLGTPQAEIARNMPSSKDTRKRPRDDSDSTLKKMKLEPNLGEDDEDKDLEPGPSGTSKASAQISGQSDTDITAEFLQPLLTPDNVANLVLISMVYLPEAMPASFQAIYTPVESAGTEAQIKHLARLMATQMTAAGLGPGVEQTKQCKEEPKEEKVVKTESVLIKRRLSAQGQAISVVGSLSSMSPLEEEAPQAKRRPEPIIPVTQPRLAGAGGRKKIFRLSDVLKPLTDAQVEAMKLGAVKRILRAEKAVACSGAAQVRIKILASLVTQFNSGLKAEVLSFILEDVRARLDLAFAWLYQEYNAYLAAGASGSLDKYEDCLIRLLSGLQEKPDQKDGIFTKVVLEAPLITESALEVVRKYCEDESRTYLGMSTLRDLIFKRPSRQFQYLHVLLDLSSHEKDKVRSQALLFIKRMYEKEQLREYVEKFALNYLQLLVHPNPPSVLFGADKDTEVAAPWTEETVKQCLYLYLALLPQNHKLIHELAAVYTEAIADIKRTVLRVIEQPIRGMGMNSPELLLLVENCPKGAETLVTRCLHSLTDKVPPSPELVKRVRDLYHKRLPDVRFLIPVLNGLEKKEVIQALPKLIKLNPIVVKEVFNRLLGTQHGEGNSALSPLNPGELLIALHNIDSVKCDMKSIIKATNLCFAERNVYTSEVLAVVMQQLMEQSPLPMLLMRTVIQSLTMYPRLGGFVMNILSRLIMKQVWKYPKVWEGFIKCCQRTKPQSFQVILQLPPQQLGAVFDKCPELREPLLAHVRSFTPHQQAHIPNSIMTILEASGKQEPEAKEAPAGPLEEDDLEPLTLAPAPAPRPPQDLIGLRLAQEKALKRQLEEEQKLKPGGVGAPSSSSPSPSPSARPGPPPSEEAMDFREEGPECETPGIFISMDDDSGLTEAALLDSSLEGPLPKETAAGGLTLKEERSPQTLAPVGEDAMKTPSPAAEDAREPEAKGNS
B2: POSTN (protein, UniProt Q15063 22-836, looked up)
Periostin: NNHYDKILAHSRIRGRDQGPNVCALQQILGTKKKYFSTCKNWYKKSICGQKTTVLYECCPGYMRMEGMKGCPAVLPIDHVYGTLGIVGATTTQRYSDASKLREEIEGKGSFTYFAPSNEAWDNLDSDIRRGLESNVNVELLNALHSHMINKRMLTKDLKNGMIIPSMYNNLGLFINHYPNGVVTVNCARIIHGNQIATNGVVHVIDRVLTQIGTSIQDFIEAEDDLSSFRAAAITSDILEALGRDGHFTLFAPTNEAFEKLPRGVLERIMGDKVASEALMKYHILNTLQCSESIMGGAVFETLEGNTIEIGCDGDSITVNGIKMVNKKDIVTNNGVIHLIDQVLIPDSAKQVIELAGKQQTTFTDLVAQLGLASALRPDGEYTLLAPVNNAFSDDTLSMDQRLLKLILQNHILKVKVGLNELYNGQILETIGGKQLRVFVYRTAVCIENSCMEKGSKQGRNGAIHIFREIIKPAEKSLHEKLKQDKRFSTFLSLLEAADLKELLTQPGDWTLFVPTNDAFKGMTSEEKEILIRDKNALQNIILYHLTPGVFIGKGFEPGVTNILKTTQGSKIFLKEVNDTLLVNELKSKESDIMTTNGVIHVVDKLLYPADTPVGNDQLLEILNKLIKYIQIKFVRGSTFKEIPVTVYTTKIITKVVEPKIKVIEGSLQPIIKTEGPTLTKVKIEGEPEFRLIKEGETITEVIHGEPIIKKYTKIIDGVPVEITEKETREERIITGPEIKYTRISTGGGETEETLKKLLQEEVTKVTKFIEGGDGHLFEDEEIKRLLQGDTPVRKLQANKKVQGSRRRLREGRSQ
B3: MRE11A (protein, UniProt P49959 2-708, looked up)
Double-strand break repair …: STADALDDENTFKILVATDIHLGFMEKDAVRGNDTFVTLDEILRLAQENEVDFILLGGDLFHENKPSRKTLHTCLELLRKYCMGDRPVQFEILSDQSVNFGFSKFPWVNYQDGNLNISIPVFSIHGNHDDPTGADALCALDILSCAGFVNHFGRSMSVEKIDISPVLLQKGSTKIALYGLGSIPDERLYRMFVNKKVTMLRPKEDENSWFNLFVIHQNRSKHGSTNFIPEQFLDDFIDLVIWGHEHECKIAPTKNEQQLFYISQPGSSVVTSLSPGEAVKKHVGLLRIKGRKMNMHKIPLHTVRQFFMEDIVLANHPDIFNPDNPKVTQAIQSFCLEKIEEMLENAERERLGNSHQPEKPLVRLRVDYSGGFEPFSVLRFSQKFVDRVANPKDIIHFFRHREQKEKTGEEINFGKLITKPSEGTTLRVEDLVKQYFQTAEKNVQLSLLTERGMGEAVQEFVDKEEKDAIEELVKYQLEKTQRFLKERHIDALEDKIDEEVRRFRETRQKNTNEEDDEVREAMTRARALRSQSEESASAFSADDLMSIDLAEQMANDSDDSISAATNKGRGRGRGRRGGRGQNSASRGGSQRGRADTGLETSTRSRNSKTAVSASRNMSIIDAFKSTRQQPSRNVTTKNYSEVIEVDESDVEEDIFPTTSKTDQRWSSTSSSKIMSQSQVSKGVDFESSEDDDDDPFMNTSSLRRNRR
B4: TMEM165 (protein, UniProt Q9HC07 34-324, looked up)
Putative divalent …: GPDEDLSHRNKEPPAPAQQLQPQPVAVQGPEPARVEKIFTPAAPVHTNKEDPATQTNLGFIHAFVAAISVIIVSELGDKTFFIAAIMAMRYNRLTVLAGAMLALGLMTCLSVLFGYATTVIPRVYTYYVSTVLFAIFGIRMLREGLKMSPDEGQEELEEVQAELKKKDEEFQRTKLLNGPGDVETGTSITVPQKKWLHFISPIFVQALTLTFLAEWGDRSQLTTIVLAAREDPYGVAVGGTVGHCLCTGLAVIGGRMIAQKISVRTVTIIGGIVFLAFAFSALFISPDSGF
B5: TMEM109 (protein)
chain: QSRRDFAPPGQQKREAPVDVLTQIGRSVRGTLDAWIGPETMHLVSESSSQVLWAISSAISVAFFALSGIAAQLLNALGLAGDYLAQGLKLSPGQVQTFLLWGAGALVVYWLLSLLLGLVLALLGRILWGLKLVIFLAGFVALMRSVPDPSTRALLLLALLILYALLSRLTGSRASGAQLEAKVRGLERQVEELRWRQRRAAKGARSVEEE
B6: SCAMP3 (protein, UniProt O14828 1-347, looked up)
Secretory carrier-associated …: MAQSRDGGNPFAEPSELDNPFQDPAVIQHRPSRQYATLDVYNPFETREPPPAYEPPAPAPLPPPSAPSLQPSRKLSPTEPKNYGSYSTQASAAAATAELLKKQEELNRKAEELDRRERELQHAALGGTATRQNNWPPLPSFCPVQPCFFQDISMEIPQEFQKTVSTMYYLWMCSTLALLLNFLACLASFCVETNNGAGFGLSILWVLLFTPCSFVCWYRPMYKAFRSDSSFNFFVFFFIFFVQDVLFVLQAIGIPGWGFSGWISALVVPKGNTAVSVLMLLVALLFTGIAVLGIVMLKRIHSLYRRTGASFQKAQQEFAAGVFSNPAVRTAAANAAAGAAENAFRAP
B7: MPHOSPH10 (protein, UniProt O00566 1-681, looked up)
U3 small nucleolar …: MAPQVWRRRTLERCLTEVGKATGRPECFLTIQEGLASKFTSLTKVLYDFNKILENGRIHGSPLQKLVIENFDDEQIWQQLELQNEPILQYFQNAVSETINDEDISLLPESEEQEREEDGSEIEADDKEDLEDLEEEEVSDMGNDDPEMGERAENSSKSDLRKSPVFSDEDSDLDFDISKLEQQSKVQNKGQGKPREKSIVDDKFFKLSEMEAYLENIEKEEERKDDNDEEEEDIDFFEDIDSDEDEGGLFGSKKLKSGKSSRNLKYKDFFDPVESDEDITNVHDDELDSNKEDDEIAEEEAEELSISETDEDDDLQENEDNKQHKESLKRVTFALPDDAETEDTGVLNVKKNSDEVKSSFEKRQEKMNEKIASLEKELLEKKPWQLQGEVTAQKRPENSLLEETLHFDHAVRMAPVITEETTLQLEDIIKQRIRDQAWDDVVRKEKPKEDAYEYKKRLTLDHEKSKLSLAEIYEQEYIKLNQQKTAEEENPEHVEIQKMMDSLFLKLDALSNFHFIPKPPVPEIKVVSNLPAITMEEVAPVSVSDAALLAPEEIKEKNKAGDIKTAAEKTATDKKRERRKKKYQKRMKIKEKEKRRKLLEKSSVDQAGKYSKTVASEKLKQLTKTGKASFIKDEGKDKALKSSQAFFSKLQDQVKMQINDAKKTEKKKKKRQDISVHKLKL
B8: EEF1B2 (protein, UniProt P24534 2-225, looked up)
Elongation factor 1-beta: GFGDLKSPAGLQVLNDYLADKSYIEGYVPSQADVAVFEAVSSPPPADLCHALRWYNHIKSYEKEKASLPGVKKALGKYGPADVEDTTGSGATDSKDDDDIDLFGSDDEEESEEAKRLREERLAQYESKKAKKPALVAKSSILLDVKPWDDETDMAKLEECVRSIQADGLVWGSSKLVPVGYGIKKLQIQCVVEDDKVGTDMLEEQITAFEDYVQSMDVAAFNKI
B9: SRSF4 (protein, UniProt Q08170 1-494, looked up)
Serine/arginine-rich splicing …: MPRVYIGRLSYQARERDVERFFKGYGKILEVDLKNGYGFVEFDDLRDADDAVYELNGKDLCGERVIVEHARGPRRDGSYGSGRSGYGYRRSGRDKYGPPTRTEYRLIVENLSSRCSWQDLKDYMRQAGEVTYADAHKGRKNEGVIEFVSYSDMKRALEKLDGTEVNGRKIRLVEDKPGSRRRRSYSRSRSHSRSRSRSRHSRKSRSRSGSSKSSHSKSRSRSRSGSRSRSKSRSRSQSRSRSKKEKSRSPSKEKSRSRSHSAGKSRSKSKDQAEEKIQNNDNVGKPKSRSPSRHKSKSKSRSRSQERRVEEEKRGSVSRGRSQEKSLRQSRSRSRSKGGSRSRSRSRSKSKDKRKGRKRSREESRSRSRSRSKSERSRKRGSKRDSKAGSSKKKKKEDTDRSQSRSPSRSVSKEREHAKSESSQREGRGESENAGTNQETRSRSRSNSKSKPNLPSESRSRSKSASKTRSRSKSRSRSASRSPSRSRSRSHSRS

Tested on: mSWI/SNF complexes
Assay: mSWI/SNF complex purification with HA-tagged baits and mass spectrometry (peptide counts)
Design: species or system human
[1] = 293_HA-BRD7 bait purification, mass spectrometry, total peptides per co-purified protein
[2] = 293_HA-BRD7 bait purification, mass spectrometry, unique peptides per co-purified protein

Molecule | Total [1] | Unique [2] | Total (293_HA-DPF2 purification, total peptides) | Unique (293_HA-DPF2 purification, unique peptides)
B1 | 2 | 1 | – | –
B2 | 2 | 1 | 1 | 1
B3 | 2 | 1 | – | –
B4 | 1 | 1 | – | –
B5 | 2 | 1 | – | –
B6 | 1 | 1 | – | –
B7 | 2 | 1 | – | –
B8 | 1 | 1 | – | –
B9 | 2 | 1 | – | –
